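Luminescence from an EWS-FLI1 target-promoter (NR0B1) reporter, set against a CMV-promoter reporter, two days after silencing single genes in TC32 Ewing sarcoma cells.
Each siRNA was applied at 20 nM.
A z-score of the log NR0B1-over-CMV signal, less the median of siRNAs with the same seed; more negative means a stronger specific loss of the NR0B1 reporter.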

The strongest results of the screen are mostly left out here.
Sequences are the guide (antisense) strand, without overhang.

| strand | target gene | seed-corrected z-score |
|---|---|---|
| `UCUGUUUCUGCACAAUCGC` | ZNF70 | -0.2223 |
| `UUUAGGCUGGAUGUUGUAG` | STON1-GTF2A1L | -0.5188 |
| `ACACGGAUAACAAAGUUAG` | UTS2B | -0.6578 |
| `UGGUCUUCAAUGUCGCAUC` | CHMP1B | -0.08187 |
| `AGAAUACUAAGCCCAUUGC` | TGFBR1 | 0.05678 |
| `UUUGUUGCGAAUGAUUUCC` | LRP4 | -0.6108 |
| `UUCCUGCCCUCUACAGAGC` | OR3A1 | 0.9846 |
| `UUUGAUGUCAGAUGUAGUG` | SAR1AP3 | -0.5252 |
| `AGCAUAAUAAAUAGAAUCC` | CDKN2D | -0.4111 |
| `UUUGAGGAUCUGAAUCUCC` | JAK3 | 0.2071 |
| `UGAUGUCCGAGAAACGAGG` | ZBED8 | 1.134 |
| `UUAUUUUUACCUGGUAUAC` | RHOXF1 | -0.3758 |
| `UUUGCUCCAAGAAUCACAC` | PLD2 | 1.815 |
| `UUCAGUUAAAGCAAUAUCC` | SOHLH2 | 0.6342 |
| `AAAAGAAGGAAGGUCACGG` | OR2T34 | 2.169 |
| `UCAAUGUACAUGUUCCCGU` | SIRT7 | -0.1452 |
| `UCCAUGAUCACUCCACUCC` | FAM171B | 0.2316 |
| `UAAAAUGUCCGACUGAUCA` | NBPF11 | -0.8786 |
| `AUCUGGUCAAAAGCUUUGA` | SLC5A10 | -1.022 |
| `AUUUGAUCUAGUAGAUGCC` | CCDC88A | -0.8847 |
| `UAAAUGACUCUUAAAGCUU` | CDKN1C | -0.6795 |
| `UUUUGGGUCACAUUUUUCC` | APOLD1 | -0.08906 |
| `UUCUCAUAGCGCAGGAUCU` | SCN1B | -0.2727 |
| `AAAUUAAUCAGCUGAGAGA` | ARL15 | -0.1877 |
| `UAAGGUUAUUCGCUAGCUC` | DDX42 | 0.3708 |
| `UUUCUUCAGACCCACCACC` | CPLX4 | -1.487 |
| `UUUGUAAUAACGGUUCUGC` | PITPNA | -0.3367 |
| `AGUUGAAUGGAAGCGCGCC` | SULT1C2P1 | 0.215 |
| `AGUGUGUCCACGGAUGUGG` | FAM86C2P | -1.22 |
| `ACCGUGAUAGCUAACACCG` | OR5C1 | -0.04965 |
| `UAUUCCUCAGUGUACACGC` | MYO19 | -0.2792 |
| `UAAGGAGUGAGUUAUUCUG` | LINC00977 | 0.6452 |
| `AUACCGUUCAGCGCAUUCU` | RBPMS2 | -0.6809 |
| `UAUGGGAUUCUGGUGACUU` | C10orf62 | 0.1118 |
| `UCAGGAAUCGGAUCAGCUG` | IL4 | 0.2133 |
| `UGAGUAGCUAGAUGUAGGG` | OR5AP2 | -0.9087 |
| `AUGAUACUAAGACCUUUGC` | C17orf47 | -0.147 |
| `UCUGAGUUGAACACGGUCC` | TOM1 | -0.07895 |
| `UAUUCUAGGAUCCAGUUCU` | SH3BP5L | -0.1321 |
| `UUGGAUAUUGUCCCGCAGC` | HIST4H4 | 0.7154 |
| `UUAAGUUCUCGGUAUAACC` | TAF4 | 1.366 |
| `UUUAGAAGCCUAUUAGCUC` | C12orf71 | -0.1886 |
| `UUUGAGGAAACAGUCCUUG` | FSTL4 | 1.129 |
| `UUGGGAAGUGUGGUGAUCC` | DDX23 | -0.9303 |
| `UUUUCGGCAAGUUCCCUUC` | RHOXF1 | -0.01877 |
| `UCUACUUCGAGGUUGGAGC` | ACVR2B | 0.1921 |
| `UUAGGCGAAGGUGGAGUUG` | MIF | -0.1672 |
| `UACAUCUCCAGUUCAUAUU` | MTG2 | -0.9738 |
| `CUCUAAGUUGGAUUUCUGC` | CSHL1 | 0.4145 |
| `UUGCGUUACAAGUCUCUGC` | WDR47 | 0.4606 |
| `UCGUUAAUGUUGAAUCGCC` | TFE3 | -0.2046 |
| `UCUUGAUUUCAAAUAGUGC` | MAMDC2 | 0.7284 |
| `UCUUGUCGACAGCACAUCC` | INHBC | 0.254 |
| `UGCAUAGUAAGCGAUGCGC` | TMEM230 | -0.105 |
| `UUGUUGACUGCAUUUGACC` | C8B | -0.1573 |
| `AAAAAUACUGCAUUUGAGG` | HMOX1 | 1.53 |
| `AAAGGUAAGUGCAUGACGG` | ADCY9 | -0.02856 |
| `UGAAAAUCUUGUCUACUCG` | VSNL1 | -0.4506 |
| `UAUAUUGCUAAGGUCACAC` | CCNYL1 | -0.2106 |
| `UAUACACUCAGUCUUACAG` | TAF1D | 0.2669 |
| `AAUGCUCUGAGCUAGACUC` | HRNR | -0.002651 |
| `UUCCGGAUUUCGUUCCUGU` | PLEKHJ1 | -0.2546 |
| `UGUCUCCAAACUUCCAUCC` | KIAA1755 | -0.3065 |
| `UCUAUUAUAGUUUCACACG` | CNPY1 | 0.2515 |
| `UCAUGGUACAUGACGUGUU` | MRPS34 | -0.6013 |
| `AACAAUCCAACAUUAGCUG` | EPHA7 | -0.2832 |
| `UUAUGUCCCAGGUUUCUGA` | SLC25A29 | -0.06901 |

Once more, the final 5:

- UGUCUCCAAACUUCCAUCC against KIAA1755 : seed-corrected z-score -0.3065
- UCUAUUAUAGUUUCACACG against CNPY1 : seed-corrected z-score 0.2515
- UCAUGGUACAUGACGUGUU against MRPS34 : seed-corrected z-score -0.6013
- AACAAUCCAACAUUAGCUG against EPHA7 : seed-corrected z-score -0.2832
- UUAUGUCCCAGGUUUCUGA against SLC25A29 : seed-corrected z-score -0.06901

Data taken from PubChem BioAssay AID1159506, deposited by NCATS (2015).